In article PMC8748556, “CXCR4 peptide-based fluorescence endoscopy in a mouse model of Barrett’s esophagus” (EJNMMI Research, 2022):

Tested on: SCJ, squamous and glandular epithelium of L2-IL1B mice
Format: in vivo, mouse
Conditions: confocal microscopy, 40x fields, 60 nmol i.v., 4 h p.i.; mean ± SEM, n = 5

Question: `C[C@@H](NC(=O)[C@@H](CCCNC(=N)N)NC(=O)[C@@H](CN)NC(=O)CCCCCN1C(=CC=CC=CC2=[N+](C)c3ccc(S(=O)(=O)[O-])cc3C2(C)C)C(C)(C)c2cc(S(=O)(=O)O)ccc21)C(=O)Nc1ccc(C(=O)NCCC[C@@H]2C(=O)N[C@@H](CCCNC(=N)N)C(=O)N[C@@H](Cc3ccc4ccccc4c3)C(=O)NCC(=O)N[C@H](Cc3ccc(O)c(I)c3)C(=O)N2C)cc1` [MK007] (cyclo([dTyr(3-I)][dNMeOrn]([4Abz-dA-dR-dDap-X1])R[2Nal]G)) was tested. Which “Sulfo-Cy5 signal in SCJ (mean positive area)” value did it give?
Answer: 465.8 ± 89.19 pixels

Question: And the “Sulfo-Cy5 signal in glandular epithelium (mean positive area)” value?
Answer: 272.8 ± 54.99 pixels

Square brackets hold non-standard residues; d marks the D form. Side chains are listed from the residue outwards. Peptide text beside a SMILES is read from it. * marks the point of attachment. X1 = C[N+]1=C(C=CC=CC=C2N(CCCCCC(=O)*)c3ccc(S(=O)(=O)O)cc3C2(C)C)C(C)(C)c2cc(S(=O)(=O)[O-])ccc21; dTyr(3-I) = N[C@H](Cc1ccc(O)c(I)c1)C(=O)O; 2Nal = N[C@@H](Cc1ccc2ccccc2c1)C(=O)O; dNMeOrn = CN[C@H](CCCN)C(=O)O; 4Abz = Nc1ccc(C(=O)O)cc1; dDap = NC[C@@H](N)C(=O)O
